The experiment deals with Hypoxia-induced gene domain protein-1a (HIGD1A) (human (endogenous in HK-2)). Briefly: affinity purification with mass spectrometry; Co-IP of HIGD1A coupled with LC-MS/MS, HK-2 cells, basal and AA-exposed.

These are yes or no findings as the source states them, for the method shown. Binding seen in cells or lysates may run through a third protein. Here binding means that the protein was enriched with, or labelled near, the bait; the list need not be complete.

B1: mitochondrial transcription factor A (TFAM) (protein, UniProt Q00059 43-246)
chain: SSVLASCPKKPVSSYLRFSKEQLPIFKAQNPDAKTTELIRRIAQRWRELPDSKKKIYQDAYRAEWQVYKEEISRFKEQLTPSQIMSLEKEIMDKHLKRKAMTKKKELTLLGKPKRPRSAYNVYVAERFQEAKGDSPQEKLKTVKENWKNLSDSEKELYIQHAKEDETRYHNEMKSWEEQMIEVGRKDLLRRTIKKQRKYGAEEC
As for B1, the binding entry is recorded as “binds”.

These data come from PMC12850329.
